According to paper PMC7789814, “The influence of various regions of the FOXP2 sequence on its structure and DNA-binding function”:
These are yes or no findings as the source states them, for the method shown.

Molecular target: T1, FOXP2 FHD (UniProt O15409 504-594)
T1 sequence: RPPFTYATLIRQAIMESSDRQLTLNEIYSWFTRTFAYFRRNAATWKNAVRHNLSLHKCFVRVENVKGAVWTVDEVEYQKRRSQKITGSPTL
Experiment: SEC; 20 µM protein incubated at 20°C for at least 30 min; HiLoad 16/60 Superdex 75 prep grade; running buffer 500 mM NaCl, 10 mM HEPES pH 7.5, 2 mM DTT; calibrated with 12-200 kDa markers; oligomer size predicted from the monomeric size; both purified

B1: FOXP2 FHD (domain or fragment, UniProt O15409 503-594)
chain: VRPPFTYATLIRQAIMESSDRQLTLNEIYSWFTRTFAYFRRNAATWKNAVRHNLSLHKCFVRVENVKGAVWTVDEVEYQKRRSQKITGSPTL
binding: no binding (tested: 20 µM)
